Data from patent publication US20090130123A1.
Residue numbers refer to the chain shown, from its start. These are yes or no findings as the source states them, for the method shown. Some entries that bind do so weakly or less than the wild type.

Amino acid sequences for entries named in this document (tags omitted). Residues count along the entry.
WNV E protein ectodomain displayed on yeast (Q9Q6P4, residues 291-705): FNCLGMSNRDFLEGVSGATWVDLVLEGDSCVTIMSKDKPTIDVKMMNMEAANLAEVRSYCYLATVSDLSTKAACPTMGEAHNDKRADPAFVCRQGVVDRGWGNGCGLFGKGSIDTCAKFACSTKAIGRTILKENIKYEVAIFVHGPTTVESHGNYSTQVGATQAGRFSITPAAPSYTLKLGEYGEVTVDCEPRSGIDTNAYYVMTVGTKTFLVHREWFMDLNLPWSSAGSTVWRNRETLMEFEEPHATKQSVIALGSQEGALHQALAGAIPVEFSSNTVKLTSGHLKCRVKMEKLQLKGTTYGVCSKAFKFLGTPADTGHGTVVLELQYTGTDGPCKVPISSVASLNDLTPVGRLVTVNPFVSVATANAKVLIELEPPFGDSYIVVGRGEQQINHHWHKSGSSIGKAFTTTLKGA
Recombinant WNV-E protein ectodomain (Q9Q6P4, residues 291-700): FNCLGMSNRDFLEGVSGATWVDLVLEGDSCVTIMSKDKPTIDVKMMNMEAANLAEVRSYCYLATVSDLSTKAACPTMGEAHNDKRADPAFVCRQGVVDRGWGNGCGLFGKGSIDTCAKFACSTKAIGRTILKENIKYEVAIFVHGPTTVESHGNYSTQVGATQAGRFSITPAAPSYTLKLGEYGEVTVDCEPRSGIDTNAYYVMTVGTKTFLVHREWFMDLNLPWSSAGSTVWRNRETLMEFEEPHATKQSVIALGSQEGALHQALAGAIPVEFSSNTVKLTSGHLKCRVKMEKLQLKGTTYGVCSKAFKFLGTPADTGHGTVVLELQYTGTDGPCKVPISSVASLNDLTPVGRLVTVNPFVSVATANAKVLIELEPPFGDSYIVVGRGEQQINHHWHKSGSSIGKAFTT
WNV E protein DI/DII displayed on yeast (Q9Q6P4, residues 291-586): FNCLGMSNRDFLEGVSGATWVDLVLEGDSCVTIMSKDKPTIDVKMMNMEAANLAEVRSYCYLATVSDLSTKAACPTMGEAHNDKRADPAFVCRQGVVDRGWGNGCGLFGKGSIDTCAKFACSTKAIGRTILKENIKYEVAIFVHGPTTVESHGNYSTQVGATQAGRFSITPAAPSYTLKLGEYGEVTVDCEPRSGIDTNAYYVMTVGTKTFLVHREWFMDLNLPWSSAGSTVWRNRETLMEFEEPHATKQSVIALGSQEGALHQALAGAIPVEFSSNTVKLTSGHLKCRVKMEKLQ

Columns and labels:
[1] = biological target: Recombinant WNV-E protein ectodomain (West Nile virus) (UniProt Q9Q6P4); experiment: ELISA on coated rWNV-E, anti-His6-HRP
[2] = biological target: WNV E protein DI/DII displayed on yeast (Saccharomyces cerevisiae; West Nile virus) (UniProt Q9Q6P4); experiment: flow cytometry on yeast displaying WNV E DI/DII (pYD1); % positive cells
[3] = biological target: WNV E protein ectodomain displayed on yeast (Saccharomyces cerevisiae; West Nile virus) (UniProt Q9Q6P4); experiment: flow cytometry on yeast displaying the WNV E ectodomain (pYD1); % positive cells
[4] = biological target: Recombinant WNV-E protein ectodomain (West Nile virus) (UniProt Q9Q6P4); experiment: ELISA; plate coated with rWNV-E (1 ug/ml), purified His6-tagged scFv, anti-His6-HRP, OD450

B1: scFv 15 (scFv)
scFv: MAQVQLVQSGAEVKKPGASVKVSCKASGYTFSGYSTHWLRQVPGQGLEWIGWDNPSSGDTTYAENFRGRVTLTRDTSITTDYLEVRGLRSDDTAVYYCARGGDDYSFDHWGQGTLVTVSSGGGGSGGGGSGGGGSQSALTQPASVSGSPGQSITISCTGTNSDVGIYNLVSWYQQHPGKAPKLMIYDVSNRPSGVSSRFSGSNSGNTATLTISGLQAEDEADYYCSAHAGDNTQFGGGTKLTVLSQPKAAPSAAAEQKLISEEDL
binding [1]: binds

B2: scFv 73 (scFv)
scFv: MAQVQLVQSGAEVKKPGASVKVSCKASGYTFSGYSTHWLRQVPGQGLEWIGWDNPSSGDTTYAENFRGRVTLTRDTSITTDYLEVRGLRSDDTAVYYCARGGDDYSFDHWGQGTLVTVSSGGGGSGGGGSGGGGSSYELTQPPSASGTPGQRVTISCSGSSSNIGSNTVNWYQQLPGTAPKLLIYSNNQRPSGVPDRFSGSKSGTSASLAISGLQSEDEADYYCAAWDARLTGPLFGGGTKLSVLRQPKAAPSAAAEQKLISEEDL
binding [1]: binds

B3: scFv 71 (scFv)
scFv: B2 scFv with P149T, F198L
binding [1]: binds

B4: 10 (Fc fusion)
scFv-Fc chain: QVQLVQSGAEVKKPGSSVKVSCKASGYTFSGYSTHWLRQVPGQGLEWIGWDNPSSGDTTYAENFRGRVTLTRDTSITTDYLEVRGLRSDDTAVYYCARGGDDYSFDHWGQGTLVTVSSSGGGSGGGGSGGGGSQTVVTQEPSFSVSPGGTITLTCGLSSGSVFTSYYPSWYQQTPGQAPRTLIYSTNTRSSGVPDRFSGSILGNKAALTITGAQADDESDYYCVLYMGSGIGVFGTGTKVTVLG
binding [2]: binds | binding [3]: binds

B5: scFv 11 (scFv)
scFv: MAQVQLVQSGAEVKKPGASVKVSCKASGYTFSGYSTHWLRQVPGQGLEWIGWDNPSSGDTTYAENFRGRVTLTRDTSITTDYLEVRGLRSDDTAVYYCARGGDDYSFDHWGQGTLVTVSSGGGGSGGGGSGGGGSSSELTQDPAVSVALGQTVRITCRGDSLRSYYASWYQQKPGQAPVLVIYGENNRPSGIPDRFSGSSSGDTASLTITGAQAEDEADYYCNSRDSSDHLLLFGGGTKLTVLGQPKATPSAAAEQKLISEEDL
binding [1]: binds

B6: scFv 84 (scFv)
scFv: MAQVQLVQSGAEVKKPGASVKVSCKASGYTFSGYSTHWLRQVPGQGLEWIGWDNPSSGDTTYAENFRGRVTLTRDTSITTDYLEVRGLRSDDTAVYYCARGGDDYSFDHWGQGTLVTVSSGGGGSGGGGSGGGGSQSVLTQPPSVSVAPGKTARIPCGGNNSGTKSVHWYQQKPGQAPVLVIYDDRVRPSGIPERFSGSNSGDTATLTISRVAAGDEADYYCQVSDGSGDPPTWVFGGGTRLTVLGQPKAAPSAAAEQKLISEEDL
binding [1]: binds

B7: scFv 10 (scFv, not shown: small tags and cut ends)
scFv: MAQVQLVQSGAEVKKPGSSVKVSCKASGYTFSGYSTHWLRQVPGQGLEWIGWDNPSSGDTTYAENFRGRVTLTRDTSITTDYLEVRGLRSDDTAVYYCARGGDDYSFDHWGQGTLVTVSSSGGGSGGGGSGGGGSQTVVTQEPSFSVSPGGTITLTCGLSSGSVFTSYYPSWYQQTPGQAPRTLIYSTNTRSSGVPDRFSGSILGNKAALTITGAQADDESDYYCVLYMGSGIGVFGTGTKVTVLGQPKAAPSAAAEQKLISEEDL
binding [1]: binds | binding [4]: binds

B8: scFv 85 (scFv, not shown: small tags and cut ends)
scFv: MAQVQLVQSGAEVKKPGASVKVSCKASGYTFSGYSTHWLRQVPGQGLEWIGWDNPSSGDTTYAENFRGRVTLTRDTSITTDYLEVRGLRSDDTAVYYCARGGDDYSFDHWGQGTLVTVSSGGGGSGGGGSGGGGSSSELTQDPAVSVALGQTVTITCQGGGLRNYYASWYQQKPGQAPVLLVYGRDNRPSGIPDRFSGSSSGNTASLTITGAQAEDEADYYCNSRDSSGNHLVFGGGTKLTVLGQPKATPSAAAEQKLISEEDL
binding [1]: binds | binding [4]: binds
